Results published in PubChem BioAssay AID2685 (National Center for Advancing Translational Sciences (NCATS), 2010).
The list shows a part of the results. The main result of the screen is listed elsewhere. These columns were measured beside it and carry no call. The list favours compounds with an active or inconclusive main result. The note in brackets gives the kind of curve behind each potency; many fits are weak. Where a SMILES comes first, the peptide text is derived from it. [ ]: non-standard residue; d: D form. The star is where a group is joined. ξ: configuration not given here. Tos = Cc1ccc(S(=O)(=O)*)cc1; Inp = O=C(O)C1CCNCC1; ξP = O=C(O)C1CCCN1

Experiment: qHTS Assay for Lipid Storage Modulators in Drosophila S3 Cells;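 as to cell number change: cells counted by Cell Tracker Red CMTPX staining in the red channel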
Conditions: BODIPY lipid droplet fluorescence, 18-24 h; for cell number change: measured here: cell count max response, cells fed with added oleic acid
Procedure, shortened: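 Drosophila S3 cells got compounds at several concentrations plus oleic acid (400 uM solution). Laser-scanning cytometry with 488 nm excitation read lipid droplets at 500-530 nm and cells at 575-640 nm. Percent activity was relative to 20 uM Triacsin C.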

[1] = measured here: cell number channel AC50, cells fed with added oleic acid
[2] = measured here: lipid fluorescence (Fed channel) AC50, cells fed with added oleic acid

Row | SMILES | cell number change [%] | AC50 [1] | AC50 [2]
1 | CC(C)(C)C(=O)CN1C(=O)NC(c2ccccc2)(c2ccccc2)C1=O | 31.7 | 23.1 µM [rising, partial curve, poor fit] | 1.16 µM [rising, single point]
2 | CC(C)OCCCNC(=O)c1c(N)n(/N=C/c2ccccn2)c2nc3ccccc3nc12 | -1.23 | – | 0.82 µM [rising, partial curve]
3 | CN(C(=O)COC(=O)c1ccccc1C(=O)N1CCN(c2ccccc2)CC1)c1ccccc1 | -21.2 | – | –
4 | CCN(Cc1ccccc1)C(=O)C1CCC(CNc2c(N3CCOCC3)c(=O)c2=O)CC1 (stereo not drawn) | -21.9 | – | 9.2 µM [falling, partial curve, poor fit]
5 | COc1cc(CN(C)Cc2ccccc2)cc(OC)c1O | 49.6 | 16.4 µM [rising, single point] | –
6 | O/N=C/c1ccn(-c2ccc(Br)cc2)c1 | 30 | – | –
7 | CCCCn1c(NC(=O)CC)c(C#N)c2nc3ccccc3nc21 | – | 2.59 µM [falling, single point] | 6.51 µM [falling, single point]
8 | C/C=C/C=C/[C@H]1Cc2cc(O)cc(O)c2O1 | – | – | 0.0517 µM [falling, full curve, poor fit]
9 | O=C(CCN1CCOCC1)NCc1ccccc1 | 42.7 | 7.31 µM [rising, partial curve] | –
10 | Cc1cc2oc(=O)cc(CN3CCN(Cc4ccccc4)CC3)c2cc1C | 11.1 | – | 0.58 µM [falling, single point]
11 | Cc1cc(C)c2nc(NC(=O)CN3C(=O)NC4(CCCC4)C3=O)sc2c1 | -10.4 | – | 9.2 µM [falling, partial curve]
12 | C=CCn1c(SCC(=O)Nc2c(C)n(C)n(-c3ccccc3)c2=O)nc2sc(C)c(C)c2c1=O | 40.5 | 0.231 µM [rising, full curve] | –
13 | Cc1cccc(N=C2CSC(=O)N2)c1 | 41.9 | – | –
14 | O=C(OCc1nnc(-c2cccs2)o1)c1cccnc1Cl | -8.65 | – | 29.1 µM [rising, partial curve]
15 | Cn1c(NCC(O)CO)nc2c1c(=O)n(Cc1ccc(Cl)c(Cl)c1)c(=O)n2C (stereo not drawn) | -10.9 | – | 20.6 µM [falling, single point]
16 | Cc1cc(N2CCN(c3nnnn3-c3ccccc3)CC2)n2ncnc2n1 | 14 | – | 0.0731 µM [falling, full curve, poor fit]
17 | S=C1NC[C@H](CC2CCCCC2)N1CCCCC1CCCCC1 | -7.32 | – | 13 µM [rising, partial curve, poor fit]
18 | CCN(CC(=O)NCc1ccc(Cl)cc1)C(=O)Cc1ccccc1[N+](=O)[O-] | 170 | 25.9 µM [rising, partial curve] | –
19 | CCOc1cccc(/C=N/NC(=O)c2cc(-c3cccn3C)n[nH]2)c1O | -44.2 | 16.4 µM [falling, single point] | 18.4 µM [falling, single point]
20 | O=C1C2CCCN2C(=O)N1CCCN1CCN(c2cccc(Cl)c2)CC1 (stereo not drawn) | 4.83 | 2.91 µM [rising, single point] | 0.00461 µM [falling, full curve, poor fit]
21 | CCOC(=O)/C=c1\s/c(=C\c2ccc(-c3ccccc3)cc2)c(=O)n1CC(=O)NCc1ccc2c(c1)OCO2 | -11.4 | – | 29.1 µM [rising, single point]

Row | SMILES | cell number change [%] | AC50 [1] | AC50 [2]
22 | COc1cc(-c2nn3c(C4CCCCC4)nnc3s2)cc(OC)c1OC | 1.44 | – | 1.03 µM [falling, full curve]
23 | CCOC(=O)C1=C(c2ccccc2)NC(SCC(N)=O)=C(C#N)C1c1cccnc1 (stereo not drawn) | 26.8 | – | –
24 | O=C(OCc1ccccc1)C1=[N+]([O-])OC(C(=O)OCc2ccccc2)C1c1c[nH]c2ccccc12 (stereo not drawn) | -8.38 | 1.03 µM [rising, full curve, poor fit] | 0.00461 µM [rising, full curve, poor fit]
25 | CCOC(=O)c1ccc(-n2c(C)nc3ccccc3c2=O)cc1 | -34.2 | 23.1 µM [falling, partial curve] | –
26 | O=C(Nc1ccn(Cc2ccccc2F)n1)c1ccc(COc2cccc(Br)c2)cc1 | 28.9 | 0.058 µM [rising, full curve, poor fit] | 1.16 µM [rising, partial curve]
27 | COc1cccc(NC(=O)CSc2nnc(NC(=O)c3ccco3)s2)c1 | 1.49 | – | 18.4 µM [rising, single point]
28 | CCOc1cc(C(=O)NCC(=O)N/N=C/c2sccc2C)cc(OCC)c1OCC | -0.923 | 0.00461 µM [rising, full curve, poor fit] | –
29 | CNC(=S)N(CCc1c(C)[nH]c2ccc(OC)cc12)Cc1ccco1 | -19.9 | – | –
30 | O=c1c2cc(Cl)ccc2[nH]c(=S)n1Cc1ccccn1 | 47 | 14.6 µM [rising, partial curve] | –
31 | COc1ccccc1N1CCN(C(=O)C(Sc2ccccc2)c2ccccc2)CC1 (stereo not drawn) | 60.9 | 3.26 µM [rising, full curve] | –
32 | O=C(/C=C/c1cc([N+](=O)[O-])ccc1OC(F)F)NCc1ccc(Cl)cc1 | 62.6 | 0.731 µM [rising, full curve] | 1.03 µM [rising, full curve]
33 | O=C(CCCl)N(Cc1nc2ccccc2c(=O)[nH]1)Cc1cccs1 | 22.4 | – | 0.116 µM [rising, full curve]
34 | CCCCCc1nnc(NC(=O)C2CCCO2)s1 (stereo not drawn) | – | – | 5.17 µM [falling, partial curve]
35 | CC(C)C(=O)C1=Cc2cc([N+](=O)[O-])ccc2OC1N1CCOCC1 (stereo not drawn) | 2.36 | – | 6.51 µM [falling, single point]
36 | C=Cn1cc[n+](CC(=O)c2ccc(OC)c(OC)c2)c1 | -2.62 | – | 29.1 µM [falling, single point]
37 | CC(C)(c1ccccc1)c1ccc(OCCN2CCOCC2)cc1 | -32.4 | 29.1 µM [falling, single point] | 2.31 µM [falling, partial curve]
38 | CCCCn1c(SCC(=O)Nc2nnc(C)s2)nnc1-c1ccoc1C | 0.508 | – | 0.82 µM [falling, full curve, poor fit]
39 | CCCCOC(=O)CSc1nnc(N)s1 | -18.5 | – | –
40 | Cc1cc(C)c(NC(=O)NC(=O)C(Cl)(Cl)Cl)c(C)c1 | 10.4 | – | 16.4 µM [rising, single point]
41 | COc1ccc(-c2nc3ccccc3s2)cc1NC(C)=O | 23.7 | 0.13 µM [falling, full curve, poor fit] | 0.092 µM [falling, full curve, poor fit]
42 | Cc1nn(Cc2ccc(F)cc2)c2sc(C(=O)Nc3ccccc3N3CCOCC3)cc12 | 4.49 | – | 0.651 µM [rising, partial curve]

Arranged by count of non-hydrogen atoms (rising): some entries from above
Row | SMILES | cell number change [%] | AC50 [1] | AC50 [2]
39 | CCCCOC(=O)CSc1nnc(N)s1 | -18.5 | – | –
8 | C/C=C/C=C/[C@H]1Cc2cc(O)cc(O)c2O1 | – | – | 0.0517 µM [falling, full curve, poor fit]
9 | O=C(CCN1CCOCC1)NCc1ccccc1 | 42.7 | 7.31 µM [rising, partial curve] | –
14 | O=C(OCc1nnc(-c2cccs2)o1)c1cccnc1Cl | -8.65 | – | 29.1 µM [rising, partial curve]
25 | CCOC(=O)c1ccc(-n2c(C)nc3ccccc3c2=O)cc1 | -34.2 | 23.1 µM [falling, partial curve] | –
35 | CC(C)C(=O)C1=Cc2cc([N+](=O)[O-])ccc2OC1N1CCOCC1 (stereo not drawn) | 2.36 | – | 6.51 µM [falling, single point]
29 | CNC(=S)N(CCc1c(C)[nH]c2ccc(OC)cc12)Cc1ccco1 | -19.9 | – | –
38 | CCCCn1c(SCC(=O)Nc2nnc(C)s2)nnc1-c1ccoc1C | 0.508 | – | 0.82 µM [falling, full curve, poor fit]
18 | CCN(CC(=O)NCc1ccc(Cl)cc1)C(=O)Cc1ccccc1[N+](=O)[O-] | 170 | 25.9 µM [rising, partial curve] | –
15 | Cn1c(NCC(O)CO)nc2c1c(=O)n(Cc1ccc(Cl)c(Cl)c1)c(=O)n2C (stereo not drawn) | -10.9 | – | 20.6 µM [falling, single point]
23 | CCOC(=O)C1=C(c2ccccc2)NC(SCC(N)=O)=C(C#N)C1c1cccnc1 (stereo not drawn) | 26.8 | – | –
26 | O=C(Nc1ccn(Cc2ccccc2F)n1)c1ccc(COc2cccc(Br)c2)cc1 | 28.9 | 0.058 µM [rising, full curve, poor fit] | 1.16 µM [rising, partial curve]
4 | CCN(Cc1ccccc1)C(=O)C1CCC(CNc2c(N3CCOCC3)c(=O)c2=O)CC1 (stereo not drawn) | -21.9 | – | 9.2 µM [falling, partial curve, poor fit]
12 | C=CCn1c(SCC(=O)Nc2c(C)n(C)n(-c3ccccc3)c2=O)nc2sc(C)c(C)c2c1=O | 40.5 | 0.231 µM [rising, full curve] | –
24 | O=C(OCc1ccccc1)C1=[N+]([O-])OC(C(=O)OCc2ccccc2)C1c1c[nH]c2ccccc12 (stereo not drawn) | -8.38 | 1.03 µM [rising, full curve, poor fit] | 0.00461 µM [rising, full curve, poor fit]
21 | CCOC(=O)/C=c1\s/c(=C\c2ccc(-c3ccccc3)cc2)c(=O)n1CC(=O)NCc1ccc2c(c1)OCO2 | -11.4 | – | 29.1 µM [rising, single point]

Additional entries:

Row | SMILES | cell number change [%] | AC50 [1] | AC50 [2]
43 | Cc1ccc(S(=O)(=O)N2CCC(C(=O)N3CCCC3C(=O)N[C@@H](CC(C)C)C(=O)NCC(N)=O)CC2)cc1 (stereo partly drawn) ({Tos-Inp}-[ξP]-Leu-Gly-NH2) | 11 | – | –
44 | Cc1ccc(NS(=O)(=O)c2cccs2)cc1S(=O)(=O)N1CCCCCC1 | -44 | 0.651 µM [falling, partial curve, poor fit] | –
45 | COn1c(=O)c(=O)n(O)c2ccccc21 | 9.1 | – | –
46 | Cc1[nH]c2ccccc2c1C(=O)C(=O)NCCCn1ccnc1 | -7.45 | – | 1.64 µM [rising, partial curve, poor fit]
47 | COc1ccc(/C=N/OC(=O)Nc2ccccc2)cc1[N+](=O)[O-] | 2.15 | – | 5.8 µM [rising, partial curve]
48 | Cn1ncc(C#N)c1/N=C/N(Cc1ccccc1)Cc1ccccc1 | -19 | – | 1.3 µM [rising, full curve]
49 | O=c1[nH]n(CCO)c(=O)c2cccnc12 | -2.58 | – | 0.00651 µM [falling, full curve, poor fit]
50 | O=C(Nc1ccccc1-c1ccccc1)NC1CC2CCCC(C1)N2Cc1ccc(F)cc1 (stereo not drawn) | 9.89 | – | 25.9 µM [falling, single point]
51 | Nc1cc(=O)[nH]c(SCC(=O)Nc2ccc(Oc3ccccc3)cc2)n1 | 10.3 | – | 5.17 µM [rising, single point]
52 | CN1CCN(S(=O)(=O)c2ccc(Cl)s2)CC1 | -8.65 | – | –
53 | Cc1ccc(C(=O)NN2C(=O)/C(=C/c3cccn3C)SC2=S)cc1 | 17 | – | –
54 | Cc1ccccc1OCc1csc(N)n1 | – | – | 0.58 µM [falling, single point]
55 | COc1ccc(C(C)=O)cc1COC(=O)C1CC(=O)N(Cc2ccccc2)C1 (stereo not drawn) | 1.67 | – | 6.51 µM [rising, single point]
56 | Cn1nc(-c2ccccc2)cc1NC(=O)C1CCCCC1 | -37 | 5.8 µM [falling, full curve, poor fit] | 5.17 µM [falling, full curve]
57 | O=C(NCCCl)C1Cc2c(ccc3ccccc23)O1 (stereo not drawn) | 21.3 | – | 6.51 µM [falling, single point]
58 | O=C(N/N=C/c1c[nH]c2ccccc12)c1ccccc1Cl | 22.5 | – | –
59 | Cc1ccc(F)c(NC(=O)c2cncn2-c2ccccc2)c1 | 7.21 | – | 6.51 µM [rising, partial curve]
60 | Cc1ccc(-n2[nH]c(C)c(C=Nc3ccc(C)cn3)c2=O)cc1 | 2.71 | – | 0.651 µM [falling, single point]
61 | Cc1cc(C)c2ccc(C(=O)O)nc2c1O | 0.475 | – | –
62 | Cc1cccc(NS(=O)(=O)c2cccc(C(=O)NCC(c3ccco3)N3CCCCC3)c2)c1 (stereo not drawn) | 33.9 | 8.2 µM [rising, partial curve, poor fit] | –
